Literature values, collected in patent US20260216341A1, “KETO ACID BIOPOLYMERS AND POLYOL KETO ESTERS AND USES THEREOF” (ATOSSA THERAPEUTICS, INC., priority 2023, published 2026).

Settings: scale 0 to 100

For `OC[C@@H](O)[C@@H](O)CO` [erythritol], the Glycemic index is given as 0.
For `O=C[C@H](O)[C@@H](O)[C@H](O)[C@H](O)CO` [glucose, reference compound], the Glycemic index is listed as 100.
For `OCC(O)CO` [glycerol], the Glycemic index is given as 3.
In the case of `OC[C@@H](O)[C@@H](O[C@@H]1O[C@H](CO)[C@H](O)[C@H](O)[C@H]1O)[C@H](O)[C@@H](O)CO` [lactitol], the Glycemic index is given as 6.
In the case of `OC[C@@H](O)[C@@H](O[C@H]1O[C@H](CO)[C@@H](O)[C@H](O)[C@H]1O)[C@H](O)[C@@H](O)CO` [maltitol], the Glycemic index is given as 35.
In the case of `OC[C@@H](O)[C@@H](O)[C@H](O)[C@H](O)CO` [mannitol], the Glycemic index is listed as 0.
In the case of `OC[C@@H](O)[C@@H](O)[C@H](O)[C@@H](O)CO` [sorbitol], the Glycemic index is given as 9.
In the case of `OC[C@@H](O)[C@H](O)[C@@H](O)CO` [xylitol], the Glycemic index is listed as 13.
In the case of isomalt, the Glycemic index is listed as 9.
